Among the data in PubChem BioAssay AID1347423 (Functional Genomics Laboratory (NCATS/FGL), 2020) are z-score values, retold here.

Hit rate of the full screen: of about 52,000 sequences, about 210 (0.4%) were called active.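 How the source made its calls: active means gene whose silencing raises cell survival under the drug, median off-target-corrected z-score across its silencing RNAs 2 or more; inactive means the rest.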 Some of the results follow.

This assay in a line: Resistance to Poly (ADP-Ribose) Polymerase inhibitor: Gene Identification via Genome-wide siRNA Screen. Conditions: mouse BRCA2 R2336H ES cells, olaparib, CellTiter-Glo viability; active compounds read high. The procedure, abridged:
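Mouse BRCA2 R2336H ES cells were reverse-transfected with siRNA (20 nM final), treated at 48 h with 500 nM olaparib, and read by CellTiter-Glo after 72 h. Scores: MAD-based z per siRNA, median per gene, seed off-target correction.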
With “CGAUAUCUUACUUCUUUUGTT against E030011O05Rik”, the z-score is inactive: 0.994.

As to GCUAUUAAUAUCCUGGUCCTT against Slc7a2, the z-score is inactive: 0.272.

Turning to GGUUCCUCUCAAUUCCACCTT against Cav3, the z-score is inactive: 0.0199.

Take “GGAUCUGGAGCAGCUUCAGTT against 2810471M23Rik”: the z-score is inactive: -1.7.

On to GGUAUUUAUGAAGCACACATT against Clcn3, for which the z-score is inactive: -0.0226.

Take GGUGUCUGCCAGGAGAAAUTT against Dexi: the z-score is inactive: -1.33.

In the case of GAAUCUCCAUUCUCCCAUGTT against Olfr1301, the z-score is inactive: -0.311.

Turning to GGGUUUUUUCCAGUCAUCUTT against Nfx1, the z-score is inactive: -0.19.

As for GGAGAAAAAGUAAAUGGUGTT against Psmd7, the z-score is inactive: -2.08.

For GAAUAUGGAGGCACCAAAGTT against Hspe1, the z-score is inactive: 0.0238.

“CGUGUUGACUUGUAUUUGUTT against C630002M10Rik”: the z-score is inactive: 0.592.

With GGUGGCAUUAAGGAAAUCATT against Olfr147, the z-score is inactive: 0.568.

With GGUGCAAUCGUGUUGAGCUTT against Dap3, the z-score is inactive: 0.349.

Take “GGUUCUGAAAUGCAUGGAGTT against 1200013I08Rik”: the z-score is inactive: 0.19.

With “CCCAUCACUUUAACCAAAGTT against 1110001P11Rik”, the z-score is inactive: 0.3.

Turning to GGGAUCAUGUAAAUUCCACTT against Pde9a, the z-score was inactive: -0.428.

Take “GGCACACAUUUUCAAGGGCTT against 1200003E16Rik”: the z-score is inactive: 0.063.

In the case of “GGAGAAGAAACGGAAAUGATT against 5830427H10Rik”, the z-score was inactive: 0.173.

For the sequence GCGAUCAAAAAAGUUGCCUTT against AU040829, the z-score was inactive: -0.328.

For the sequence “GGAGUUAUUCUGUUCUCUCTT against 4930563A03Rik”, the z-score is inactive: 1.96.

For the sequence GGACAGUUCAAUGAGGACATT against Arl10b, the z-score is inactive: -2.

Take GCCCAUCGAUCCUAAGGAATT against Ccrn4l: the z-score is inactive: 2.38.

As to GGGAAAUUAUUACCAAAAGTT against BC004022, the z-score is inactive: 0.508.

As to “CCCAUGAUGCCAUCUUUAATT against 2410002F23Rik”, the z-score was inactive: -1.28.

GCAUUGUUUGGGAAUGCCCTT against Olfr1396: the z-score is inactive: 0.246.

As to GGUUUGACUGUCAGUAUUUTT against Cds1, the z-score is inactive: -0.173.

On to GGAGAGGGAUUAGCCAGUATT against Ank3, for which the z-score was inactive: -1.18.

As for GGAGAUGAAGUUAAAGCGATT against Slc26a6, the z-score was inactive: -0.466.

Consider “GGUCAGGUUGAGGACAUAATT against 4932416A11Rik”, for which the z-score is inactive: -1.95.

As for GGGAGAUAAAACCAACUUUTT against Fkbp3, the z-score was inactive: 1.03.

For “GGCCAUCCAGAAUUACAUGTT against B130052G07Rik”, the z-score was inactive: -1.01.

With GGAUCUGGUACCCACCCAATT against Jak2, the z-score is inactive: 0.213.

For GGAAGUGAGGGAAGAAAUUTT against Zcchc9, the z-score is inactive: -3.17.

Turning to GGUGUCAUCUUCCUGCUUGTT against Olfr93, the z-score is inactive: -0.749.

Turning to CCAAUCUGAAGUGCUACUATT against Trim42, the z-score was inactive: -1.53.

Turning to GGUUAUUUCUAAAGUUCCUTT against Sphk1, the z-score was inactive: -0.505.

As for GGCCUCACACGUCUUAAAATT against Prkcz, the z-score was inactive: -0.0567.

Take GGUGAGCCUGGAAAAUUAUTT against Tm4sf6: the z-score was inactive: -0.668.

With GGAGAUUGACGGUGUGAUGTT against Cacna2d2, the z-score is inactive: 0.556.

On to CCCAGUCAGAGAUCGAUACTT against Naglu, for which the z-score was inactive: 0.216.

As for GGAGAAUGGCAAGAAUGAATT against Gpx1, the z-score is inactive: -0.617.

Take “GCGGAGAGCGAUGAUCUUUTT against C230090D14”: the z-score was inactive: 0.502.

For GGAAAUUUGAAGCAAGAAGTT against Mertk, the z-score is inactive: 0.406.

In the case of “GGAUGAUAUGGCAUACUUUTT against D330028D13Rik”, the z-score was inactive: -1.24.

Regarding GGACUGUUCAUUGAUUGUATT against AF397014, the z-score was inactive: -1.64.

Regarding “GGUGACUCAGAGAGUAAAATT against D830050J10Rik”, the z-score is inactive: -0.355.

Consider CCAAAACAUUAACCUGAAGTT against Pla2g6, for which the z-score is inactive: -0.895.

Regarding CGGGAAACAUUAGUGAAUUTT against Mapre2, the z-score was inactive: -0.0999.

GGAAAGAGAAUAAAUAAGGTT against Amhr2: the z-score is inactive: 0.0413.

GGGUUACCUCCUGACUGUUTT against Olfr930: the z-score was inactive: -0.558.

For the sequence “GGCUAUUACCAUGGCCACUTT against 2210020M01Rik”, the z-score is inactive: -2.11.

With GGUAUUGAAAUGGAAAAGGTT against D6Wsu163e, the z-score was inactive: 0.345.

Take GCAGGUGGAUCUUAUAUGGTT against Cabin1: the z-score was inactive: 0.0481.

Regarding CCUACAAACCUGCUUAUCCTT against Srebf2, the z-score is inactive: -0.108.

“CACCGUAAUAAUCACACUATT against A830025F02Rik”: the z-score was inactive: -1.23.

As for GGUAACUUCAUGUGCAGCATT against AI194318, the z-score was inactive: 0.596.

On to GGAACUGAAGGGACAGGAATT against Uchl1, for which the z-score was inactive: -2.03.

For the sequence GGUGGACUCUCUCUCAGAATT against Scara3, the z-score was inactive: 0.397.

Take ACAGUGUCUGGCAUCAAACTT against Mrgpra5: the z-score was inactive: -0.323.

In the case of CGGUGUAUCAAGUAAGGUGTT against Aup1, the z-score is inactive: -1.04.

As to CCAUAUGCAACCGUUACUUTT against Ciz1, the z-score is inactive: -0.493.

As for GGAUAAAUGUCACAGAGCUTT against Cd200, the z-score is inactive: 0.566.

As for GCAUGAGAGGUUUCAGUAUTT against Rnf150, the z-score is inactive: -1.49.

As for “GAAUCUAAAGAUGAACACCTT against 0610009B22Rik”, the z-score is inactive: -0.48.

Consider GGAGAUCACAGCAAUCCGATT against Ccna1, for which the z-score is inactive: 0.0362.

For CGUAUGCAGAACAACAUUUTT against Klhl2, the z-score was inactive: -0.199.

Take GGUAGAAGAGAGCUUCAACTT against Alg12: the z-score was inactive: 1.42.

For the sequence GCAGUGUAGAACUAGGCUGTT against Taf1c, the z-score is inactive: -0.496.

As for GGUCUUUUGGUUCCAGAUCTT against Ak4, the z-score was inactive: -1.12.

Take GGGAGAAUUGUAGAUUAUUTT against Myo10: the z-score was inactive: -0.413.

For GGCCAGCAGUGUUUUUCUUTT against Acvr1, the z-score is inactive: -0.00314.

For the sequence “GGCCAUCUGUAAGAGAAGCTT against 4921520G13Rik”, the z-score was inactive: 0.609.

Take CCUACGUGCACAUUUGUUUTT against Arts1: the z-score was inactive: -0.0282.

As to GGAAAGGGAAUACUUUGCUTT against Ube2q, the z-score was inactive: -1.22.

With “GGUGAUGAAACAAAGACAATT against 1700022C21Rik”, the z-score was inactive: -0.919.

CGAUAUAGAAUUGUUACAGTT against Nf1: the z-score is inactive: -1.11.

As to GGCAGAAUAUACUUGCCCUTT against Attp, the z-score is inactive: 0.0958.

Consider GGAUUUCAAGACAUACAAGTT against Tsnaxip1, for which the z-score was inactive: 0.246.

With GCCCGAAUACAGGAAGAUCTT against Hspg2, the z-score was inactive: 0.761.

As for “GGACGAUUCUUUUAUUUGATT against C030014K22Rik”, the z-score is inactive: 0.0715.

For the sequence GGUACCAAUAAUGGAUUUUTT against Ambn, the z-score is inactive: -1.22.

On to ACUUCUACUGAAGUGAAUUTT against Krtap16-9, for which the z-score is inactive: 0.61.

GCGGACCUGCUGUUAUGAATT against Sema3b: the z-score was inactive: 1.62.

For GGCCUUUUUUAAAAGAAGCTT against Esr2, the z-score was inactive: 0.881.

Regarding GGCUGCCUUGCUGAUUUGATT against Boc, the z-score was inactive: -2.5.

Turning to GGACAAGACUCUCAGUUCATT against Atpaf1, the z-score was inactive: -1.93.

As to “GCAUUGUGCGAUGAGAAGATT against D430015B01Rik”, the z-score is inactive: -0.987.

As for GCUACACUCCAAGCAAAAUTT against Anapc10, the z-score is inactive: -0.843.

For GGCUCUGACGCAGAUCCAATT against Mki67ip, the z-score is inactive: -2.23.

For GCACCUCUCAAAGAGUUUATT against Rin2, the z-score is inactive: -0.145.

Consider GGAUGAUGAUAACUUACAGTT against Mro, for which the z-score is inactive: 0.0314.

GGUAUAGCAAGUUAAAAGATT against Hip1: the z-score was inactive: -0.426.

With GGCACAGUUAUGCAAAAUATT against Cpa3, the z-score is inactive: 0.937.

In the case of GAAGUUGCACUUUGGCCAGTT against Imap38, the z-score is inactive: 0.673.

On to “GGCAUGCUAGGAGACAAGATT against 4831416G18Rik”, for which the z-score was inactive: -0.618.

Take CCUCUAUGCGUCCAAUAUUTT against Jmjd3: the z-score is inactive: -0.207.

On to GGACUUUGAUCAGCUGUCUTT against Tmem17, for which the z-score was inactive: -1.37.

In the case of GGGAUUCCUGAAGCUUCUCTT against Serpinb9b, the z-score is inactive: -1.24.

“GGAGGCCAUCACACUUAGATT against 4933421I07Rik”: the z-score was inactive: -1.3.

As for CAGAGUAUAGCAUAGUGACTT against BC050099, the z-score was inactive: -0.33.

For the sequence GCUCUAUAGUUAAUUAGGGTT against Rbm3, the z-score is inactive: 0.0324.

On to CGUUUGUACCUGCGGAAAATT against Olfr270, for which the z-score is inactive: 1.59.

Regarding CCACAUGACCUUACAGCCATT against Zdhhc8, the z-score was inactive: -0.733.
